From PubChem BioAssay AID248 (DTP/NCI, 2004)
The list does not hold the whole screen: it gathers some chemical classes. Not every dose and run of a compound is shown. T/C: endpoint of the treated group in % of that of the vehicle group. Some doses have a count of surviving animals in place of a T/C: the source holds a T/C of zero for them, seemingly a mark for toxic or unscored doses. Some survivor counts are full or nearly so, which does not show that the dose was tolerated: survival well below the control is almost never listed, so the zero probably covers shortened survival too. Survivors were counted at the toxicity check, usually on the fifth day, unless a day is given; later deaths do not show. Schedules are NCI's codes, read here as Q, the interval in days (D) or hours (H), X, the number of doses. Some schedule codes hold Z or #, which are not explained here. For survival time, the PubChem record calls one and a half times the control and up active, and a quarter to a half above the control has no call in these data; cut-offs in other NCI protocols can differ. Some doses were run more than once; the results are listed from low to high.

Tested on: L1210 leukemia ip in BDF1 mice, survival T/C
Test: NCI In Vivo Anticancer Drug Screen. Data for tumor model L1210 Leukemia (intraperitoneal) in B6D2F1 (BDF1) mice
Conditions: T/C endpoint: mean survival time, higher T/C = longer survival
[1] = dose: 100.0 mg/kg/injection, schedule: Q01DX001 (ip), vehicle: saline
[2] = dose: 200.0 mg/kg/injection, schedule: Q01DX001 (ip), vehicle: saline

## NC1CCCCC1.O=P(O)(N(CCCl)CCCl)N1CC1
dose: 1.0 mg/kg/injection, schedule: Q01DX Z (ip), vehicle: saline
  T/C: 96 % of control
dose: 2.0 mg/kg/injection, schedule: Q01DX Z (ip), vehicle: saline
  T/C: 134 % of control
dose: 3.13 mg/kg/injection, schedule: Q01DX009 (ip), vehicle: saline
  T/C: 127 % of control
dose: 4.0 mg/kg/injection, schedule: Q01DX Z (ip), vehicle: saline
  T/C: 96 and 143 % of control
dose: 6.25 mg/kg/injection, schedule: Q01DX009 (ip), vehicle: saline
  T/C: 161 % of control
dose: 8.0 mg/kg/injection, schedule: Q01DX Z (ip), vehicle: saline
  T/C: 149 and 175 % of control
dose: 12.5 mg/kg/injection, schedule: Q01DX001 (ip), vehicle: saline
  T/C: 121 % of control
dose: 12.5 mg/kg/injection, schedule: Q01DX009 (ip), vehicle: saline
  T/C: 254 % of control
dose: 12.5 mg/kg/injection, schedule: Q04DX003 (ip), vehicle: saline
  T/C: 210 % of control
dose: 16.0 mg/kg/injection, schedule: Q01DX Z (ip), vehicle: saline
  T/C: 133 % of control
dose: 25.0 mg/kg/injection, schedule: Q01DX001 (ip), vehicle: saline
  T/C: 168 % of control
dose: 25.0 mg/kg/injection, schedule: Q01DX009 (ip), vehicle: saline
  T/C: 89 % of control
dose: 25.0 mg/kg/injection, schedule: Q04DX003 (ip), vehicle: saline
  T/C: 247 % of control
dose: 32.0 mg/kg/injection, schedule: Q01DX Z (ip), vehicle: saline
  survivor count: 6 of 6
dose: 50.0 mg/kg/injection, schedule: Q01DX001 (ip), vehicle: saline
  T/C: 262 % of control
dose: 50.0 mg/kg/injection, schedule: Q01DX009 (ip), vehicle: saline
  survivor count: 6 of 6
dose: 50.0 mg/kg/injection, schedule: Q04DX003 (ip), vehicle: saline
  T/C: 129 % of control
dose: 62.5 mg/kg/injection, schedule: Q01DX010 (ip), vehicle: saline
  survivor count: 5 of 6
dose: 64.0 mg/kg/injection, schedule: Q01DX Z (ip), vehicle: saline
  survivor count: 6 of 6
[1]
  survivor count: 6 of 6
dose: 100.0 mg/kg/injection, schedule: Q04DX003 (ip), vehicle: saline
  survivor count: 2 of 6
dose: 125.0 mg/kg/injection, schedule: Q01DX010 (ip), vehicle: saline
  survivor count: 0 of 6
[2]
  survivor count: 1 of 6
dose: 200.0 mg/kg/injection, schedule: Q04DX003 (ip), vehicle: saline
  survivor count: 0 of 6
dose: 250.0 mg/kg/injection, schedule: Q01DX001 (ip), vehicle: DMSO
  T/C: 172 % of control
dose: 250.0 mg/kg/injection, schedule: Q01DX010 (ip), vehicle: saline
  survivor count: 0 of 6
dose: 500.0 mg/kg/injection, schedule: Q01DX001 (ip), vehicle: DMSO
  T/C: 185 % of control
dose: 650.0 mg/kg/injection, schedule: Q01DX001 (ip), vehicle: DMSO
  T/C: 167 % of control

## CP(C)(N)(Cl)c1ccccc1
[1]
  survivor count: 1 of 6
[2]
  survivor count: 0 of 6
dose: 400.0 mg/kg/injection, schedule: Q01DX001 (ip), vehicle: saline
  survivor count: 0 of 6

## CC1CC[P+](c2ccccc2)(c2ccccc2)Cc2ccccc21.F[P-](F)(F)(F)(F)F (centres undefined)
dose: 100.0 mg/kg/injection, schedule: Q04DX002 (ip), vehicle: saline with Tween-80
  T/C: 92 % of control
dose: 200.0 mg/kg/injection, schedule: Q04DX002 (ip), vehicle: saline with Tween-80
  survivor count: 3 of 3
dose: 400.0 mg/kg/injection, schedule: Q04DX002 (ip), vehicle: saline with Tween-80
  survivor count: 0 of 3
